According to US20210253643A1 (The University of British Columbia, priority 2018, published 2021):

Assay: peptide synthesis
Conditions: whole synthesis

| Substance | purity (crude or final not stated) [%] |
| --- | --- |
| DWLKAFYDKVAEKLKEAAPDWFKAFYDKVAEKFKEAF | 82 |
| PEPTIDE1{F.A.E.K.F.K.E.A.V.K.D.Y.F.A.K.F.W.D.P.A.A.E.K.L.K.E.A.V.K.D.Y.F.A.K.L.W.D}$$$$V2.0 | 85 |

Strings that start with PEPTIDE1 are HELM notation: dots part the residues, brackets hold end groups and non-standard residues. No end group written: not given here.
